# From the supplement of paper PMC3334620
# Over roughly 33,000 sequences, “E-score (-0.5 to 0.5)” has its median near -8e-05; the highest 2% begin near 0.23. The list shows a part of the results.
# Biological target: T1, Nrg2 (UniProt P38082)
# T1 sequence: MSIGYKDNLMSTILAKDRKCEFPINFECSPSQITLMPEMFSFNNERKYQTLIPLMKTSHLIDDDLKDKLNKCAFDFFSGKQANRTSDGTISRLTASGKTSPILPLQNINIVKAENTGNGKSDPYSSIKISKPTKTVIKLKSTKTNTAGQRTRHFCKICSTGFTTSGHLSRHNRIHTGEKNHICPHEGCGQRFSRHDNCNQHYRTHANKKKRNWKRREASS
# Experiment: PBM E-score (8-mer binding enrichment) (E-score (-0.5 to 0.5)); higher = stronger / more preferred TF binding
# Settings: protein concentration: 100 nM; construct: GST-full length
# Summary of the method: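 Bound GST-tagged yeast transcription factors, applied at about 100-200 nM to double-stranded universal all-10-mer Agilent arrays, were detected with fluorescent anti-GST. Scans were normalised with masliner. A modified Wilcoxon-Mann-Whitney statistic, the E-score, was assigned to each ungapped eight-base word pooled with its reverse complement by the Universal PBM Analysis Suite.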
row,Sequence,PBM E-score
1,AGGAAATA,0.22
2,ACACTCAG,0.133
3,CACTTCCC,0.00444
4,ATTTTGGA,0.0286
5,AATTGTAT,0.119
6,TGTCAAAA,0.0142
7,ACAGTGTC,-0.133
8,CTCTAGGA,-0.239
9,CTGAAATC,0.0648
10,AAAAAAGG,0.127
11,AGGAATCA,-0.00827
12,AGCCCTGA,0.0189
13,GGCCCGTA,-0.148
14,ACTGAATC,-0.0363
15,GAGTCGTA,0.0144
16,CCTTTGCG,0.219
17,AATTCTAT,-0.0322
18,GTTGTGTA,-0.0294
19,CTTGTATA,-0.011
20,CCACCCCC,-0.406
21,CAAGAAAG,0.0551
22,TCTAACAA,0.0208
23,TCCCGGCA,-0.239
24,CCAATCAC,0.0121
25,AGGAACCA,-0.0689

row,Sequence,PBM E-score
1,GTCTGTGA,0.191
2,AGTACTGC,-0.0012
3,ATGTGCTG,0.125
4,ACACGGCT,0.102
5,AATTGCTG,0.257
6,ATACCAAC,0.155
7,CATACGCG,0.12
8,GCCATGAA,0.0988
9,GGAGACGA,0.139
10,CCCTTGCA,0.092
11,GTCAGACA,0.0198
12,ATGCGGCC,-0.0258
13,GCATCGAC,0.0311
14,TAACCCCA,-0.0503
15,CGGCCACC,-0.0656
16,CCAATGAC,-0.116
17,CCAGGCGA,-0.225
18,ATCAGCTG,0.184
19,GATCGTTA,-0.0328
20,GATGACGA,0.00169
21,AGGACACA,0.196
22,CACCAGAA,-0.13
23,TCCTAAAA,-0.251
24,CTTCCGAA,-0.017
25,CATTCCAA,-0.142

row,Sequence,PBM E-score
1,CGCCAGAA,0.00339
2,AAGCTCCA,-0.151
3,ACCGGCCC,-0.281
4,CTAGAAGA,-0.067
5,TTAGGAAA,-0.0859
6,GCGGTCGA,0.148
7,CGGGTATC,0.135
8,TGGGGCAA,0.0289
9,AGGAATAC,-0.116
10,CATAAAGC,-0.0684
11,GGGTTATA,-0.113
12,ATACACAG,0.134
13,ATATTTAG,0.0718
14,GATCCGGA,-0.0216
15,ATACGGCG,-0.0902
16,AATTTCGC,0.244
17,ATAGCATC,0.0125
18,AGGACGTA,-0.182
19,GGTCGGAA,0.114
20,CAGTCAAC,-0.142
21,AAAACAGG,-0.0624
22,ATGCACAG,0.083
23,AATGTCAA,0.0225
24,AGACAACC,0.0279
25,AGCCTGAG,-0.23

# Taken from above (six entries):
row,Sequence,PBM E-score
13,ATATTTAG,0.0718
14,GATCCGGA,-0.0216
15,ATACGGCG,-0.0902
16,AATTTCGC,0.244
17,ATAGCATC,0.0125
18,AGGACGTA,-0.182

# Next part

row,Sequence,PBM E-score
1,CAGTTTTC,0.17
2,CATTAAGA,-0.214
3,TATGCAGA,-0.0251
4,GGGCTCTA,-0.0187
5,AGCAGCCC,-0.0703
6,ACATAAAG,-0.0912
7,CCCATCGA,0.0786
8,AAGTAGGA,-0.0631
9,CGATACCG,0.0432
10,ACAGGTTC,-0.0776
11,ACTTGCTA,-0.0369
12,CGATATGA,-2e-05
13,GTAAGTGA,0.114
14,CTCCTCCC,-0.189
15,AATTGCTA,0.0948
16,CCTTACGC,0.208
17,ACCCCCGT,-0.404
18,CATATTAC,0.162
19,AATTACTA,0.134
20,GCTGAAAC,-0.139
21,CGCATAAG,0.0106
22,AAGATACG,-0.0456
23,CATACTCC,0.0539
24,AGTTGCTG,-0.11
25,AGACTCGC,-0.179

row,Sequence,PBM E-score
1,ACGGGGCA,-0.125
2,AATGCTGG,0.121
3,AAACCAAG,0.0418
4,ATTCTGGG,-0.00905
5,CCCGCGGA,0.204
6,GACAGCTA,-0.0623
7,ATGAGTCG,0.0494
8,CCTGCAAC,0.0281
9,ATACAGGC,-0.0144
10,ATTAAATA,0.167
11,AGATGTAC,0.0548
12,ATTATCAG,0.00295
13,CGATGAGA,0.0479
14,AGGGTAAC,0.00717
15,CCTATGTA,0.0808
16,GTATAGAC,0.0114
17,AGCAGGTA,-0.071
18,CGGCGCTA,-0.142
19,ACCAAGGC,-0.137
20,CAAACCGG,-0.0418
21,CGCAAACG,0.0139
22,GCAGATGA,-0.0237
23,AGGATATC,0.119
24,ATAGTCAC,0.115
25,AGTGTCCG,0.0105

row,Sequence,PBM E-score
1,ATCCGGGA,-0.0864
2,GCTCTGAA,-0.0599
3,ACGGTAAC,0.028
4,AAGGTCCC,0.135
5,CTTGATCA,0.0994
6,CAGACCGA,0.17
7,GCCACAAA,0.0838
8,ACGAATCT,0.0678
9,CGATTCAA,-0.0847
10,CATGTGGA,-0.043
11,ATCACACC,0.0235
12,GGGCTCAC,-0.224
13,AGACGAAC,0.205
14,ACCAGGTC,-0.0863
15,CTCTACAC,0.00612
16,CACCGCAC,0.0959
17,GCATGGCA,0.119
18,ACGGGTAA,-0.0679
19,CAGCTTGG,0.0694
20,GCGAAACC,-0.0402
21,GCGCCCAA,0.0843
22,TCTATAGA,-0.22
23,AAAGGAAC,0.0293
24,AGGCCCAT,-0.238
25,GAGGCCCC,-0.206

row,Sequence,PBM E-score
1,CTAACCTC,-0.0997
2,CCGAGAGC,-0.188
3,ATTAGCAA,0.186
4,ACCGCCGC,0.0991
5,AAAGGTTA,0.0194
6,TATCGTAA,0.0493
7,ACCGCGTC,0.00407
8,GGTGATAC,-0.00965
9,AAAAGCAG,-0.113
10,ACACGTGC,-0.0312
11,CAACGGTA,-0.111
12,ATAAGGAC,-0.0237
13,ACGGGAGC,-0.0168
14,CACAGCAG,-0.0102
15,TAGGTCCA,0.0089
16,CCAGATGA,0.0477
17,AATACGTA,0.158
18,ATTATCAC,0.0352
19,TATCTTAA,0.0722
20,GGGGGCGA,-0.261
21,AGTCTCAC,-0.166
22,CATGAACG,-0.0607

# Five entries from above, reformatted.
row	Sequence	PBM E-score
24	CTTCCGAA	-0.017
19	AATTACTA	0.134
20	CAAACCGG	-0.0418
12	GGGCTCAC	-0.224
20	GCGAAACC	-0.0402
